Publication PMC11040742

Molecular target: T1, nEYFP-OsNAR2.1 (rice (Oryza sativa)) (UniProt Q6ZI50)
T1 sequence: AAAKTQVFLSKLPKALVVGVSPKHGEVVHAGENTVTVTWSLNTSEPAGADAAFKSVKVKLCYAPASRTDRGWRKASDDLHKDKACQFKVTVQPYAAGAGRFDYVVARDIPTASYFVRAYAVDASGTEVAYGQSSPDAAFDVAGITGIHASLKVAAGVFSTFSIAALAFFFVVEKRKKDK
Experiment: split reporter; BiFC with split EYFP, transient expression in rice blade protoplasts

**Q.** “OsPLDα1-cEYFP (rice (Oryza sativa)) (enzyme)” was tested. Which binding did it give?
**A.** binds

Results are given in words; binding and its absence hold for the method and conditions named. In cells and extracts the contact can be indirect. Binding calls can cover weak binding; strength is not graded here.
